# In doi:10.1101/2024.08.16.608256 (bioRxiv, 2024):
# Results are given in words; binding and its absence hold for the method and conditions named. Some binding calls cover weakened binding; strength is not graded here. For some of these results: Sequences can lack the tags named with a protein.
# Tests used:
# [1] = target: tag-free YqjD (E. coli) (UniProt P64581); assay: SDS-resistant dimer on SDS-PAGE
# [2] = target: ElaB (N-terminal Xpress-His6-tag) (E. coli) (UniProt P0AEH5); assay: SDS-resistant dimer on SDS-PAGE
# [3] = target: YgaM (N-terminal Xpress-His6-tag) (E. coli) (UniProt P0ADQ7); assay: SDS-resistant dimer on SDS-PAGE
# [4] = target: ΔTM-YqjD (E. coli) (UniProt P64581); assay: SDS-resistant dimer on SDS-PAGE with western blot
binder,measurement,setting,value
"YqjD (wild type, full-length, N-terminal Xpress-His6-tag) (natural protein, E. coli, UniProt P64581 1-101, looked up) MSKEHTTEHLRAELKSLSDTLEEVLSSSGEKSKEELSKIRSKAEQALKQSRYRLGETGDAIAKQTRVAAARADEYVRENPWTGVGIGAAIGVVLGVLLSRR",binding,[1],binds
"ElaB (N-terminal Xpress-His6-tag) (protein, UniProt P0AEH5 1-101) MSNQFGDTRIDDDLTLLSETLEEVLRSSGDPADQKYVELKARAEKALDDVKKRVSQASDSYYYRAKQAVYRADDYVHEKPWQGIGVGAAVGLVLGLLLARR",binding,[2],binds
"YgaM (N-terminal Xpress-His6-tag) (protein, UniProt P0ADQ7 1-109) MFNRPNRNDVDDGVQDIQNDVNQLADSLESVLKSWGSDAKGEAEAARSKAQALLKETRARMHGRTRVQQAARDAVGCADSFVRERPWCSVGTAAAVGIFIGALLSMRKS",binding,[3],binds
"ΔTM-YqjD (domain or fragment, UniProt P64581 1-83) MSKEHTTEHLRAELKSLSDTLEEVLSSSGEKSKEELSKIRSKAEQALKQSRYRLGETGDAIAKQTRVAAARADEYVRENPWTG",binding,[4],no binding
